# The campaign covered roughly 31,000 sequences. About 1,400 (4.5%) were called active.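 The calls were made as follows: active = median seed-adjusted z-score above 1 or below -1; inactive = the rest.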 This is one part of the list.
# Test: Novel Modifiers of Survival Motor Neuron (SMN) Protein: Gene Identification via Genome-wide siRNA Screen;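 also: luminescence tracks full-length SMN protein made from the SMN2 reporter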
# Settings: HEK293T SMN2-luciferase reporter, siRNA knockdown, 72 h; actives lie on both sides
# Procedure, shortened: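 Luciferase signal, proportional to full-length SMN made from an SMN2 cDNA reporter in stable HEK293T cells, was read 72 h after siRNA reverse transfection. Values were expressed as MAD scores after non-targeting-control normalization and log10 conversion; seed analysis flagged off-targets.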
row,Sequence,median seed-adjusted z-score
1,GACUGUGACUCGCACUGCATT against NTN3,inactive: 0.298
2,CAGUUAGCCGCGCACCUAATT against COL9A3,inactive: 0.16
3,CUUCUUACUUAUUUGCGUATT against ROS1,inactive: -0.0561
4,GCAACAGCAUUAUGACCCATT against COL10A1,inactive: -0.0291
5,GCAUCAUGACCGACGGUUATT against MPPED2,inactive: 0.418
6,CCAUGUAUGUGAGAGUGAUTT against RCAN1,inactive: -0.000195
7,GGAUGGAUCCUGAAGGUGATT against SUB1,inactive: -0.571
8,GGUUAGGGCUUGACCCAAATT against HIBADH,inactive: 0.234
9,GAGUUUGAGCUGACGAAUATT against IQCH,inactive: 0
10,GCAGCUACCAAGGAAAGGATT against SH3BP1,inactive: -0.225
11,CACUCUACGGCAACGUGUUTT against POU3F3,inactive: -0.366
12,CGGUUCCAGUGAAGAUUGATT against SRP68,inactive: 0.721
13,GGCCGAUGCUAAGGAGAUATT against POLR3H,inactive: 0
14,GGAUCCUGGUCAAAUAAAATT against ZDHHC14,inactive: 0.312
15,GGUUAUGAGGUCACAGACATT against CACNB3,inactive: 0.573
16,AGAACGUGGUGAUCUGGUATT against ZNF653,inactive: -0.202
17,CCAUAACUAUUGAAAACGATT against TRPC1,inactive: -0.196
18,CCUGGUUUUUAUAAGAGAATT against SERPINC1,inactive: -0.0822
19,ACACCAACGUAUGUCCAGATT against THSD4,inactive: 0.0657
20,UGGGAAGCAUGGAACCUCATT against ACBD7,inactive: -0.542
21,GCAUCAUCAAAGACCGGAUTT against KCTD17,inactive: 0.492
22,CCAUGGAUACCAACCGGAATT against TMPRSS2,inactive: 0.433

row,Sequence,median seed-adjusted z-score
1,GUGUCAUAGCUAAAACGCATT against RLF,inactive: 0
2,GGAUAAUUUCUUUCGGUCUTT against MUTYH,inactive: 0.024
3,GCAAUUAUAUCAUAACUUATT against FOXE1,inactive: -0.316
4,GGACUACAGUUCAGAGGCATT against SOX15,inactive: -0.376
5,GCUUCAUCAUCUUAGUGUATT against IL2RB,inactive: 0.333
6,CCCGGACUCCUCCAAGAUATT against PPP1R14D,inactive: 0
7,CCUCCUCACCAAACCCAUUTT against SLC5A1,inactive: -0.812
8,GACAGACAAUGGAAACGAATT against FABP2,inactive: 0
9,GUAGGUGACUCGGUAAUAATT against TMEM171,inactive: 0.278
10,GGAUUUGAACAAGAUCGAUTT against TBC1D9,inactive: -0.0473
11,GACUCAUUCUGAAGUCGAATT against MMP13,inactive: 0.265
12,GGAUCAGCUCAACCACAUUTT against MAPK3,inactive: -0.573
13,CCGAAGUGGUUUUAGCUGATT against CAMK1D,inactive: -0.0629
14,CAAUGAGUAUGUGACGGAATT against UNC13A,active: -2.1
15,CAAUAUCUAUUGUUUCGUATT against OPN3,inactive: -0.916
16,CUUCAUAUCUCUUUACGUATT against PIGW,inactive: -0.242
17,GCACAGGUCUAAUUCGUCUTT against GRIK1,inactive: -0.31
18,GGUAGAAGAUGAGACGGUUTT against EZH1,inactive: 0.268
19,GAACCUCGUUUCGAAAUUUTT against RIOK2,inactive: -0.16
20,ACCUGACCCAUUUUACUAUTT against FXYD7,inactive: -0.0312
21,GAAAGUACUGUGAACAUGATT against LIMS1,inactive: -0.313
22,GCACGACAGUGAAAACGCATT against ITPR1,inactive: -0.0888

row,Sequence,median seed-adjusted z-score
1,CAGCCUUCGUGACACUAGATT against DECR1,inactive: 0.0567
2,UAAAAUCUAGGGAUCCAAUTT against POLR2K,active: -3.72
3,GAACGGUCCAGUCACCAAATT against TRIM24,inactive: -0.22
4,CCAUGUACUGGGUAUAGAATT against ZFP112,inactive: -0.449
5,CCUCUAGAAGGAUCUAAUATT against MMP19,inactive: 0.43
6,GGAACGAGGUAACAGUUGATT against CDC16,inactive: 0.106
7,GGUCAACAAUGCUUAUGCATT against DHRS1,inactive: 0
8,GCCUCAACCCUGUGCUGUATT against RXFP4,inactive: -0.315
9,CACUGGAACUCAUAUUGUATT against NGF,inactive: -0.325
10,AAGUCGAAGAGAUACCAUUTT against ZNF768,inactive: 0.169
11,GACCUGUCCUAGUAACAAATT against RNASE2,inactive: 0.283
12,CGAAGCUACUUGACGAAAATT against IL16,inactive: -0.471
13,GGAUGGAAAUGUAGACAUUTT against CAPN9,inactive: 0.417
14,ACAUUAGCAUUUUCGUUGATT against SSX6,inactive: -0.493
15,GGAAGUUUCUAGAGGAACATT against TRIM10,inactive: -0.0934
16,GGUCGUAGAUUUAAAGGAATT against SSB,inactive: 0
17,CCUGGAGUGUGGUGCUUAATT against FFAR1,inactive: 0.248
18,CAAUAUCUGCCCUAACUCATT against DUSP13,inactive: -0.772
19,GGAUGAUAUGUAGCUCCCATT against SIGIRR,inactive: 0.0269
20,GAAACUCCCUUAUAGUACATT against TBX3,inactive: 0
21,CCAAUGACCAAGGAGCAUATT against RANBP6,inactive: -0.696
22,CAUCGCCUAUAUGAAAUAUTT against PLA2G10,active: 1.07

row,Sequence,median seed-adjusted z-score
1,GAAGGGAGGGUGUACCAUUTT against ABL1,inactive: -0.181
2,CAUGUACUCUGGGACCUUUTT against SLC25A20,inactive: -0.183
3,CUUUUGCCUGUAGCCCAUATT against GCS1,inactive: 0.819
4,GGAUCCUCCCAGUUUAACATT against CHSY1,inactive: 0.247
5,GAGUAUGCCGUGAAGAUCATT against RPS6KA2,inactive: 0.139
6,GGGUGAUGGUUGCAGUUUUTT against ZDHHC20,inactive: -0.936
7,GCGGUACUUUGAGCAGUUATT against P4HA2,inactive: 0
8,GACCCACAUUGAAUCUAGATT against PAH,inactive: 0.487
9,GCAGGUACAUCUCGCCUGATT against ENO1,inactive: 0.0766
10,CAACUGCUCGGAUGCCCAUTT against SLC6A3,inactive: 0.457
11,GUGUAUUCAUGGAUGCAGATT against GYG1,inactive: 0.119
12,AGAUCAAGGACAUGGAGAATT against EFHD2,inactive: 0.874
13,GAGUGUUCCUUUGCAUUGATT against ARFGAP3,inactive: 0.00412
14,GCAAUUAACUCCACACGAATT against PXDNL,inactive: -0.186
15,GACCGACAUUUGUGAAGAATT against ZNF547,inactive: 0.099
16,CUACGACGACGAGAAGGAATT against SERPINH1,inactive: 0.186
17,UCAGCCUCACGGAAACUCATT against EMX2,inactive: 0.324
18,CACUCACCUUUUUCAAGAATT against SPSB3,inactive: 0.457
19,GCGAGAAUCUGUUAGUAAATT against PANK3,inactive: -0.185
20,GUGUUGGUAUUAUAUGAUATT against SLC25A31,inactive: -0.615
21,GGCUCAAGGAAACCCAAUATT against AFF4,inactive: -0.0637
22,GGAGAGCUACGGUUACUCATT against GABRD,inactive: 0.428

row,Sequence,median seed-adjusted z-score
1,GGAGCUACCUGGAAAAAGUTT against PSMD7,inactive: 0.0973
2,GGAAUACCAUGAGCUGUUATT against OSBP,inactive: 0.256
3,GGUCCGCAAAGGCUUCUGATT against VWA1,inactive: 0.289
4,GGAGAACCAUUGUCAUAUATT against TFRC,inactive: 0.019
5,GAGCCUAAAUUCCAUUGUUTT against TYW1,inactive: 0.201
6,CGAUCCUACCUACACCAGUTT against EPHB3,inactive: -0.407
7,GGAGUACUCCUAUGACAUUTT against FGFR2,inactive: 0.158
8,AGAGCAAGCGGAAAAGGGATT against HAND1,inactive: 0.161
9,CCUGAUGAGCCGUACAUUATT against CLDN16,inactive: -0.868
10,GCAUGACCCUCGUCACAUATT against THBS1,inactive: -0.847
11,CACUAUCAACAAUAGCCUATT against FOXM1,inactive: -0.399
12,GCUAAUGCAGAGUCAAGUATT against TRIM14,inactive: -0.0636
13,CUAGUGAGCUCAUCGAAAATT against MYD88,inactive: -0.365
14,AGAUAGAGGUCACCAGUGATT against PPP1R3F,inactive: 0.781
15,ACACUGUACUCUCCAAUAATT against PLA2G1B,inactive: -0.411
16,GGCUGUAUCACAUCGGUUATT against CCR2,inactive: -0.00107
17,UCAGGGCUCUGUUGCAAGATT against TESK1,inactive: 0.384
18,GACCCUUGGAAAUUGCUGATT against RNF26,inactive: 0.359
19,CUCGGGUCCUGAAAUCUUATT against MLC1,inactive: -0.284

# As a working copy, some entries already given:
row,Sequence,median seed-adjusted z-score
21,GGCUCAAGGAAACCCAAUATT against AFF4,inactive: -0.0637
22,GGAGAGCUACGGUUACUCATT against GABRD,inactive: 0.428
1,GGAGCUACCUGGAAAAAGUTT against PSMD7,inactive: 0.0973
2,GGAAUACCAUGAGCUGUUATT against OSBP,inactive: 0.256
3,GGUCCGCAAAGGCUUCUGATT against VWA1,inactive: 0.289
4,GGAGAACCAUUGUCAUAUATT against TFRC,inactive: 0.019
5,GAGCCUAAAUUCCAUUGUUTT against TYW1,inactive: 0.201
6,CGAUCCUACCUACACCAGUTT against EPHB3,inactive: -0.407
7,GGAGUACUCCUAUGACAUUTT against FGFR2,inactive: 0.158
8,AGAGCAAGCGGAAAAGGGATT against HAND1,inactive: 0.161
9,CCUGAUGAGCCGUACAUUATT against CLDN16,inactive: -0.868
10,GCAUGACCCUCGUCACAUATT against THBS1,inactive: -0.847
11,CACUAUCAACAAUAGCCUATT against FOXM1,inactive: -0.399
12,GCUAAUGCAGAGUCAAGUATT against TRIM14,inactive: -0.0636
13,CUAGUGAGCUCAUCGAAAATT against MYD88,inactive: -0.365
14,AGAUAGAGGUCACCAGUGATT against PPP1R3F,inactive: 0.781
15,ACACUGUACUCUCCAAUAATT against PLA2G1B,inactive: -0.411
16,GGCUGUAUCACAUCGGUUATT against CCR2,inactive: -0.00107
17,UCAGGGCUCUGUUGCAAGATT against TESK1,inactive: 0.384
18,GACCCUUGGAAAUUGCUGATT against RNF26,inactive: 0.359
19,CUCGGGUCCUGAAAUCUUATT against MLC1,inactive: -0.284

# — PubChem BioAssay AID1347426 (Functional Genomics Laboratory (NCATS/FGL), 2020)
